PubChem BioAssay AID1259254 | NCATS, 2017
Screen: 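Finding genes that stop cells copying their DNA twice in one cycle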 (primary screen). Cell system: human HCT116 colorectal cancer cells. Reagents: single siRNA against human genes. Duration: 3 days. Measurement: 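Nuclei stained with Hoechst and imaged; cell-cycle phase assigned by DNA content; G2 share scaled per plate, non-targeting siRNA 0%, GMNN siRNA 100%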. Direction: G2 robust z-score and G2 cells, % of GMNN control: higher = more G2 cells, more excess DNA replication; raw share of cells in G2: higher = larger share of cells with G2 DNA content. Hit rule: 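An siRNA counts as active if its G2 robust z-score lies at least 5 MADs above the screen median; here such calls match roughly 38% of GMNN control or more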.
Shown is one part, drawn at random, of about 59,000 reagents tested. About 1,550 of them (2.6%) count as active. 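G2 share is only a proxy for re-replication; each gene was hit by three separate siRNAs, and active genes were retested.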 Raw values vary from plate to plate and are shown uncorrected. Reagents against one gene are numbered here. Not stated in the record: the amount of reagent.

The first 4 records as a preview:
gene knocked down	siRNA no.	G2 robust z-score	G2 cells, % of GMNN control	raw share of cells in G2 (%)	Call
CTSS	1	1.26	11.9	9.7	inactive
CTSS	2	0.177	4.22	6.4	inactive
CTSS	3	0.227	4.57	5.61	inactive
DAB1	1	0.647	7.52	7.74	inactive

Main list, from the first entry:
gene knocked down	siRNA no.	G2 robust z-score	G2 cells, % of GMNN control	raw share of cells in G2 (%)	Call
CTSS	1	1.26	11.9	9.7	inactive
CTSS	2	0.177	4.22	6.4	inactive
CTSS	3	0.227	4.57	5.61	inactive
DAB1	1	0.647	7.52	7.74	inactive
DAB1	2	2.04	17.3	11.2	inactive
DAB1	3	-1.31	-6.28	1.93	inactive
KAT2B	1	-0.136	2.01	5.43	inactive
KAT2B	2	2.75	22.3	13.1	inactive
KAT2B	3	-0.455	-0.231	4.43	inactive
LDB1	1	-0.967	-3.83	3.43	inactive
LDB1	2	1.12	10.8	8.19	inactive
LDB1	3	2.06	17.5	9.53	inactive
LAMA5	1	-0.812	-2.74	2.37	inactive
LAMA5	2	1.46	13.2	11	inactive
LAMA5	3	-0.257	1.16	3.53	inactive
ATP2B2	1	0.45	6.13	7.52	inactive
ATP2B2	2	-0.447	-0.175	4.72	inactive
ATP2B2	3	0.307	5.13	6.38	inactive
HDAC3	1	2.1	17.7	11.1	inactive
HDAC3	2	1.59	14.2	10.2	inactive
HDAC3	3	0.268	4.85	6.74	inactive
PELI3	1	-0.746	-2.28	2.75	inactive
PELI3	2	1.24	11.7	7.13	inactive
PELI3	3	0.0891	3.59	4.34	inactive
CYP26A1	1	3.23	25.7	14.4	inactive
CYP26A1	2	0.57	6.98	6.5	inactive
CYP26A1	3	0.0951	3.64	6.26	inactive
OR2D3	1	-0.782	-2.54	3.08	inactive
OR2D3	2	-0.137	2.01	3.93	inactive
OR2D3	3	-0.223	1.4	2.23	inactive
PRKCA	1	-0.56	-0.976	5.29	inactive
PRKCA	2	0.959	9.71	8.68	inactive
PRKCA	3	0.133	3.91	5.4	inactive
BLCAP	1	-1.06	-4.52	3.21	inactive
BLCAP	2	1.35	12.4	9.27	inactive
BLCAP	3	1.53	13.7	8.31	inactive
KANK4	1	0.176	4.21	5.11	inactive
KANK4	2	1.66	14.6	7.87	inactive
KANK4	3	-0.913	-3.46	1.67	inactive
SF3A2	1	1.24	11.7	10.5	inactive
SF3A2	2	1.79	15.6	10.1	inactive
SF3A2	3	1.76	15.4	9.54	inactive
NXPH1	1	0.621	7.33	5.57	inactive
NXPH1	2	1.36	12.5	8.64	inactive
NXPH1	3	-0.394	0.194	4.62	inactive
CDC123	1	2.49	20.5	14.2	inactive
CDC123	2	0.798	8.58	7.3	inactive
CDC123	3	0.155	4.06	4.78	inactive
